# Values quoted from earlier work, collected in paper PMC4713029 (Nuclear medicine and biology, 2011).
# Conditions: in circulation/plasma; cited from earlier work
structure (smiles),measurement,value
N[C@@H](Cc1ccc(O)c(O)c1)C(=O)O [L-DOPA],half-life,40 to 60 min
